Laboratory results: EP0748792A1 (priority 1994, dated 1995)

System: total acetylating capability of the organism
Assay: Acetylating capability of white rats (sodium sulfacyl acetylation, arylamine content in urine)
Format: in vivo
Conditions: agent 20 mg/kg i.p. 4 days
Experimental: It is known that intact animals, receiving sufficient doses of pantothenic acid, have accelerated reactions of arylamine biotransformation. Therefore, there is the possibility to regulate the acetylating processes in the bodies of people and animals. In the examples given below the total acetylating capability of the organism was assessed using the method of quantitative determination of the arylamine content in the urine examined.
As a subject for acetylating, aromatic amines were chosen, as their usage makes it possible to assess both the activity of N-acetylamine transferase and (indirectly) the content of acetyl CoA.
As a subject for examination sodium sulfacyl was chosen. […] 14 animals were included in each group. The examined agent was injected intraperitoneally at a dose of 20 mg/kg. On the 4th day, 4 hours after the last injection of the examined agent, the sodium sulfacyl solution in a dose of 20 mg/kg was injected intraperitoneally. All the rats were separated into exchangeable cages for urine gathering. The collected data were compared with the control groups of animals (group I - only sodium sulfacyl in a dose of 20 mg/kg, and group II - calcium pantothenate).

Molecule | volume of excreted urine in comparison with the control group I
CC(C)(CO)[C@@H](O)C(=O)NCCC(=O)O [Ca D-pantothenate, calcium D-pantothenate, reference compound] | did not change
calcium ketopantothenate [Ca ketopantothenate] | did not change
